# The supplement of paper PMC7666118
# Chains of the proteins cited; added tags and fusions are not shown. Lines headed by an entry give the natural chain unless they say otherwise; changes in a name come on top.
# UniProt Q5JTH9: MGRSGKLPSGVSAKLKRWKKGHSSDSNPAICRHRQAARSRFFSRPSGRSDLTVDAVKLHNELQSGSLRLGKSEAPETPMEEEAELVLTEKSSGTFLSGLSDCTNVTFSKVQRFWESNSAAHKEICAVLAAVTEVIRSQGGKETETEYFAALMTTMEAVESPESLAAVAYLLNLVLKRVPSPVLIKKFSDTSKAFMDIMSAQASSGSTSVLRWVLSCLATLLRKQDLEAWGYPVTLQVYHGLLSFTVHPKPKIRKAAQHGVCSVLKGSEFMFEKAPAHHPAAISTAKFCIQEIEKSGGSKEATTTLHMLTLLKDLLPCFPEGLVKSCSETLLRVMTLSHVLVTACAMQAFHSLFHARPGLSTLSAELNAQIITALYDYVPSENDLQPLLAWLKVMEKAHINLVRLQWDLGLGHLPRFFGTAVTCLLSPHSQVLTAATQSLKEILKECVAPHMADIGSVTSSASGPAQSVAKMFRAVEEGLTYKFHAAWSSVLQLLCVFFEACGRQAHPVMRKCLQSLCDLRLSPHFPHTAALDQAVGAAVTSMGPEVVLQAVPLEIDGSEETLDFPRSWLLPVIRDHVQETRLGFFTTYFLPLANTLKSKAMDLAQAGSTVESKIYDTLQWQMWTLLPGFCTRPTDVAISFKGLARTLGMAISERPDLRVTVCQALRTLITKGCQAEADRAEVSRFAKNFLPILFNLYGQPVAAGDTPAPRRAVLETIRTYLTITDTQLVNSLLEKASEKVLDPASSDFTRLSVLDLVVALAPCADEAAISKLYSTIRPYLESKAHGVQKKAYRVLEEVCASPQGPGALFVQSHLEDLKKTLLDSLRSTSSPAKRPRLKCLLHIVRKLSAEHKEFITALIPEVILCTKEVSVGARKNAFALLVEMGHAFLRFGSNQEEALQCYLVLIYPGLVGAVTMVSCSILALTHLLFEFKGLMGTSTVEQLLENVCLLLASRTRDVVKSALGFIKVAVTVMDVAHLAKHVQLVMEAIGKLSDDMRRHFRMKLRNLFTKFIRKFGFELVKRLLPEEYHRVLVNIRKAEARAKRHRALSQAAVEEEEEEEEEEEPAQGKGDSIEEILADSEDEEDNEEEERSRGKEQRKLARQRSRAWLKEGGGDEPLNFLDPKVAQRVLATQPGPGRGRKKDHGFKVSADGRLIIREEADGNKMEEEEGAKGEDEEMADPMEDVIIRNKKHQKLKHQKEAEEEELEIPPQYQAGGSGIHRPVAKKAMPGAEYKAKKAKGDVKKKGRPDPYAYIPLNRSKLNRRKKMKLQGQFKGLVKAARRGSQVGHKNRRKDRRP
# UniProt Q01196, whole entry: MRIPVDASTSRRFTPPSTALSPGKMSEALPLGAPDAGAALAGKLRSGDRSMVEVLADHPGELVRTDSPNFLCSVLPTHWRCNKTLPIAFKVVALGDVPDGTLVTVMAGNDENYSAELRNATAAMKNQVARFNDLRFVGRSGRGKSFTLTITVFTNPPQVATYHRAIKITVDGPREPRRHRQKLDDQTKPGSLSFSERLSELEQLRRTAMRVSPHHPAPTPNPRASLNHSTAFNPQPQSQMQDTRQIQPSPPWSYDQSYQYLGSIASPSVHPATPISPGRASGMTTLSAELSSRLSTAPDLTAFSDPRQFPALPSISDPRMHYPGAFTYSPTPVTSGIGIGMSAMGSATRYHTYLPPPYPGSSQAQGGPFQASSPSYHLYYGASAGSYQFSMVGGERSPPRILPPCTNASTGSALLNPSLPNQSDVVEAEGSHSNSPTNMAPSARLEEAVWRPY
# UniProt Q6SPF0: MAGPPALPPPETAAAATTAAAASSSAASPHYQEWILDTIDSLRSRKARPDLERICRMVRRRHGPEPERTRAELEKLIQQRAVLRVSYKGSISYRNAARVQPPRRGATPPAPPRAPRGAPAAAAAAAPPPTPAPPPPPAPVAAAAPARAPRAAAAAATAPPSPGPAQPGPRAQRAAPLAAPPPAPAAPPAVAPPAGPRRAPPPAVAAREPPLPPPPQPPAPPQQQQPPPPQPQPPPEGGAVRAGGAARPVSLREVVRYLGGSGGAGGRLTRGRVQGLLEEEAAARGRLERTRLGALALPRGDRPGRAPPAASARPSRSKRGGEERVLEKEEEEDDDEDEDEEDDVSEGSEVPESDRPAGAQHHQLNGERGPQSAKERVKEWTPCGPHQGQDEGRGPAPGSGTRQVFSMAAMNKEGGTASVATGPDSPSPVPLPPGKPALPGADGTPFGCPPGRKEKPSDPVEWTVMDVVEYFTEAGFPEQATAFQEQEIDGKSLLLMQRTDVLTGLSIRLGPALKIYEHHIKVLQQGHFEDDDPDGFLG
# UniProt Q8WWV3: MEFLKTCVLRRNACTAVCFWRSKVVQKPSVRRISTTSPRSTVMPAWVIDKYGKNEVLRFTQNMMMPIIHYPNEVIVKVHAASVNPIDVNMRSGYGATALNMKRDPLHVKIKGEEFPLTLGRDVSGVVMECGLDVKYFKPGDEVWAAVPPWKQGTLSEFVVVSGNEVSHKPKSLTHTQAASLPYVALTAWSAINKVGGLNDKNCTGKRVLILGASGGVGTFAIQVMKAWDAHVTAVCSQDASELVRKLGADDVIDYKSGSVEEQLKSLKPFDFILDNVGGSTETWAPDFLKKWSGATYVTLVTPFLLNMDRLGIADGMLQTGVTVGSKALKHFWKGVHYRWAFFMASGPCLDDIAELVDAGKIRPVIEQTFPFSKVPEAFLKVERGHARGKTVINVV
# UniProt P60602: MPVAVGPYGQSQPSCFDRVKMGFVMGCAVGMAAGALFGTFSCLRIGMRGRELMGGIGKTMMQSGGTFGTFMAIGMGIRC
# UniProt P62341, whole entry: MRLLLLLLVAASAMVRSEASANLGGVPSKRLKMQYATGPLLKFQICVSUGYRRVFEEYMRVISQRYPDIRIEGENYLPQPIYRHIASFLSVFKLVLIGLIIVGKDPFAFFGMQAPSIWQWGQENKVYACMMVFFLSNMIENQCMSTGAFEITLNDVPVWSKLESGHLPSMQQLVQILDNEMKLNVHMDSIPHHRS
# UniProt O60613, whole entry: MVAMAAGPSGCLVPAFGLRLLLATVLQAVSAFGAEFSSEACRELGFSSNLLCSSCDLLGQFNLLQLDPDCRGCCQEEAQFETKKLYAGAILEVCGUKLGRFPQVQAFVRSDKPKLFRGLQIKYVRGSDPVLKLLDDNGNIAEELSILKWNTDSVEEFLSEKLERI
# UniProt Q16181: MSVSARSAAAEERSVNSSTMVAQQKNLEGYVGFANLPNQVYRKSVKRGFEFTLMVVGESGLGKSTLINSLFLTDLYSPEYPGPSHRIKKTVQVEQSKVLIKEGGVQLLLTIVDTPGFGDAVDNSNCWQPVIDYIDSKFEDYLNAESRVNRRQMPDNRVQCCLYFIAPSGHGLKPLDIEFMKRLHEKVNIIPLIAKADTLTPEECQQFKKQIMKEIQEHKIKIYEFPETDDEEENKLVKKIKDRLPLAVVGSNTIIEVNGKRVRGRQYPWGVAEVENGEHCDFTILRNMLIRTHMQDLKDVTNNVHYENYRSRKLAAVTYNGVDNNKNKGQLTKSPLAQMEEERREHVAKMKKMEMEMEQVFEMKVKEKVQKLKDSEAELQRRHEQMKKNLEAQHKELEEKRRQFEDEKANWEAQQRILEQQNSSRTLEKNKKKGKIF
# UniProt Q8NBX0: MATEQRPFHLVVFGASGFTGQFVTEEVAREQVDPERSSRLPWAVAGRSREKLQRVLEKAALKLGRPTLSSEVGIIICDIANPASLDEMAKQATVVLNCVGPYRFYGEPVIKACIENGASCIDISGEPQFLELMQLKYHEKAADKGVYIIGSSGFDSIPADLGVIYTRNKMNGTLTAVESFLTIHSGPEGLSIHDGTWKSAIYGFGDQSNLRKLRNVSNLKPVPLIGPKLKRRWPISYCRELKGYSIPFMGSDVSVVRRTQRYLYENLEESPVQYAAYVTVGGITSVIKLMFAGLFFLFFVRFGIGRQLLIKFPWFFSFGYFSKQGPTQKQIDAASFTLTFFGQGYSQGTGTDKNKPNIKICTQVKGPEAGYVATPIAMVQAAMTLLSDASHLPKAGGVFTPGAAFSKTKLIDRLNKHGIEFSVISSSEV
# UniProt Q9HB90, whole entry: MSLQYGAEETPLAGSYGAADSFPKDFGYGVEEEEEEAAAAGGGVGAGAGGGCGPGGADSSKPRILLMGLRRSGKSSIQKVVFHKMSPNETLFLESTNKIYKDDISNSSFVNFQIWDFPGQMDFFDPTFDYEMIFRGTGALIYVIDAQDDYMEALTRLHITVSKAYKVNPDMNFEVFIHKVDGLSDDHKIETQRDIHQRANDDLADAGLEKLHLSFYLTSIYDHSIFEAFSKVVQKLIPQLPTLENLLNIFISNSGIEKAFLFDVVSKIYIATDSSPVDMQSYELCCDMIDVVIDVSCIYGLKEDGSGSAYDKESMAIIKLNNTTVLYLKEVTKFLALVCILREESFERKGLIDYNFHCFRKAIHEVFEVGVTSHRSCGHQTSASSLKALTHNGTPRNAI
# UniProt Q15418, whole entry: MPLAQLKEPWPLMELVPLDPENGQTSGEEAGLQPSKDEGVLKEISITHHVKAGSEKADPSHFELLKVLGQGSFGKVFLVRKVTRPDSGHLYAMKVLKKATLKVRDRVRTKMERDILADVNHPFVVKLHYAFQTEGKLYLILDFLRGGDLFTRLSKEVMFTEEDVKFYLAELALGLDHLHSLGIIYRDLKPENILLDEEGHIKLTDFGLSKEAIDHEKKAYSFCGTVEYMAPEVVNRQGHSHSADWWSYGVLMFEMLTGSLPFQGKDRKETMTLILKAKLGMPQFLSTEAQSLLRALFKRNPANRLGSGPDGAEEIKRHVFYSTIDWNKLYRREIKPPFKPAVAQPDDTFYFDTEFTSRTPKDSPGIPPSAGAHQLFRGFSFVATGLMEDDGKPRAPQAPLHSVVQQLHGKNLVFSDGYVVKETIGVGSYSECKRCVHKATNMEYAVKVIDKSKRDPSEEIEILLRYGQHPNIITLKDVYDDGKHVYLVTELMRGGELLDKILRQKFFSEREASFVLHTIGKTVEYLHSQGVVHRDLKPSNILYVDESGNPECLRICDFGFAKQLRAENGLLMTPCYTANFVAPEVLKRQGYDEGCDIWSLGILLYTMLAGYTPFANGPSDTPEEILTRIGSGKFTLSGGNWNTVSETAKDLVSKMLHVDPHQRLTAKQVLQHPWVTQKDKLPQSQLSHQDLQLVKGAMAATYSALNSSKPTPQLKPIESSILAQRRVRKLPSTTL
# UniProt Q9HC36: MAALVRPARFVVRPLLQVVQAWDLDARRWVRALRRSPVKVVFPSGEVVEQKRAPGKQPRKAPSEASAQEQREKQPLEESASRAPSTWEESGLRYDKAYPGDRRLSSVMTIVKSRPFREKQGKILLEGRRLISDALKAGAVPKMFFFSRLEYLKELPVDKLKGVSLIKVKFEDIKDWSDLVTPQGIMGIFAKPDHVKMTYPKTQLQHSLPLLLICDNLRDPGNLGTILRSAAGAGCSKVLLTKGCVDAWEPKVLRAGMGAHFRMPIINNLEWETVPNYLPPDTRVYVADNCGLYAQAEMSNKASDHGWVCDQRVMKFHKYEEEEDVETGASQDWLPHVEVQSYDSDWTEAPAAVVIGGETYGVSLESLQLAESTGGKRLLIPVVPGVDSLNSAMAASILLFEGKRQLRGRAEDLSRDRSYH
# UniProt Q9NZV5, whole entry: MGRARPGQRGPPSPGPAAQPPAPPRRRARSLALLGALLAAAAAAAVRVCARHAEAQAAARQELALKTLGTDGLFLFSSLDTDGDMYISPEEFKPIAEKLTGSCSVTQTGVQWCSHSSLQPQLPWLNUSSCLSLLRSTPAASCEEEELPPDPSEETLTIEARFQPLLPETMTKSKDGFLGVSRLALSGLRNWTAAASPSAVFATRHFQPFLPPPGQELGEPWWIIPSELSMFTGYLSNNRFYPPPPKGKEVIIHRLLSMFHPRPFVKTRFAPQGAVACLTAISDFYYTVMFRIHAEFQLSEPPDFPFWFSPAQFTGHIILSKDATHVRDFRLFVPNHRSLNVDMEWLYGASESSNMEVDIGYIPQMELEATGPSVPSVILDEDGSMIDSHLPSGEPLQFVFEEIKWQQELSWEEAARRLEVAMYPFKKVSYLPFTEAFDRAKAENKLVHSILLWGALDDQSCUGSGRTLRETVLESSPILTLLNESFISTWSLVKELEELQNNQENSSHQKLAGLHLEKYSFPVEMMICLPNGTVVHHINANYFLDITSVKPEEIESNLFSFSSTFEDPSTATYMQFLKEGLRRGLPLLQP
# UniProt Q99611, whole entry: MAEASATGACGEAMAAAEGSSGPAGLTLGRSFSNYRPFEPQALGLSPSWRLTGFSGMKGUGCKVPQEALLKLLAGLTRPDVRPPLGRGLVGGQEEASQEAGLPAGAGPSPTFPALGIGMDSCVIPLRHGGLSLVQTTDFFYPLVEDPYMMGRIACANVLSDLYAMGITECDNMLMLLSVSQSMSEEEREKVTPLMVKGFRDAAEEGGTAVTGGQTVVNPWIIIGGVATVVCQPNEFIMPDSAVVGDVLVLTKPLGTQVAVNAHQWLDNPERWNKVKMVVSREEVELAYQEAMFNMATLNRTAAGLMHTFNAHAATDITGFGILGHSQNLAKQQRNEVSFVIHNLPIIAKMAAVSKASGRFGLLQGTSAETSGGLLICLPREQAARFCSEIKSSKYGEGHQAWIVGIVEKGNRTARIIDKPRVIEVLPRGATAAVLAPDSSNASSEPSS
# Some of the results follow.
# Compound: COc1ccc(Cn2ccc3cc(C)c(C(=O)NO)cc32)cc1
# Experiment: dose-dependent thermal stabilisation call (2D-TPP, DLPTP, 10% FDR) (binary (1 = stabilised)); higher = stabilised by the compound
# Conditions: system: HL-60 intact cells; concentration range 0.04-10 µM
# Method: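 2D thermal proteome profiling in intact HL-60 cells treated with BRD-3811 (0, 0.04, 0.29, 2, 10 uM) for 90 min at 37 C, then heated 3 min at one of 12 temperatures (42-63.9 C). Soluble protein was quantified by TMT10 MS. The value is the DLPTP call of the paper: dose-dependent thermal stabilisation over all temperatures at 10% FDR (F-test of a dose-response against a flat model); one experiment, one call per tested protein.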
row,Target,dose-dependent thermal stabilisation call
1,RRP12 (UniProt Q5JTH9),inactive: 0
2,RPL7 (UniProt P18124),inactive: 0
3,SCNM1 (UniProt Q9BWG6),inactive: 0
4,RUNX1 (UniProt Q01196),inactive: 0
5,SAMD1 (UniProt Q6SPF0),inactive: 0
6,RTN4IP1 (UniProt Q8WWV3),inactive: 0
7,ROMO1 (UniProt P60602),inactive: 0
8,RPS6KC1 (UniProt Q96S38),inactive: 0
9,SELT (UniProt P62341),inactive: 0
10,SEP15 (UniProt O60613),inactive: 0
11,SEC16A (UniProt O15027),inactive: 0
12,SACM1L (UniProt Q9NTJ5),inactive: 0
13,SCAP (UniProt Q12770),inactive: 0
14,SEPT7 (UniProt Q16181),inactive: 0
15,RUFY1 (UniProt Q96T51),inactive: 0
16,RPS27A (UniProt P62979),inactive: 0
17,SEC13 (UniProt P55735),inactive: 0
18,SCCPDH (UniProt Q8NBX0),inactive: 0

# Looked up one by one from above, 2 records:
row,Target,dose-dependent thermal stabilisation call
9,SELT (UniProt P62341),inactive: 0
7,ROMO1 (UniProt P60602),inactive: 0

# The list continues.

row,Target,dose-dependent thermal stabilisation call
1,RPIA (UniProt P49247),inactive: 0
2,RPS6 (UniProt P62753),inactive: 0
3,SAP30BP (UniProt Q9UHR5),inactive: 0
4,RPS10 (UniProt P46783),inactive: 0
5,SAAL1 (UniProt Q96ER3),inactive: 0
6,RRAGC (UniProt Q9HB90),inactive: 0
7,RPS6KA1 (UniProt Q15418),inactive: 0
8,RNMTL1 (UniProt Q9HC36),inactive: 0
9,RTF1 (UniProt Q92541),inactive: 0
10,RSPRY1 (UniProt Q96DX4),inactive: 0
11,SAMM50 (UniProt Q9Y512),inactive: 0
12,SDHC (UniProt Q99643),inactive: 0
13,SEPN1 (UniProt Q9NZV5),inactive: 0
14,SACS (UniProt Q9NZJ4),inactive: 0
15,SART1 (UniProt O43290),inactive: 0
16,SECISBP2 (UniProt Q96T21),inactive: 0
17,SEPHS2 (UniProt Q99611),inactive: 0
